Where “and” joins values, the source holds several entries; their conditions need not be identical. Equal values may be shown once. Residues, ends and D or L forms follow the SMILES beside them.
tested on: CNT1; test: Untargeted metabolomics of Slc28a1-/- vs Slc28a1+/+ mouse urine (24 h, ad libitum); details: Slc28a1-/- / Slc28a1+/+

Row | Compound | Fold Change | log2(FC)
1 | N[C@@H](Cc1c[nH]c2ccccc12)C(=O)O [L-Tryptophan] | 1.2938 | 0.3716
2 | O=C(O)CCC[C@H](O)\C=C/C=C/C=C/[C@H](O)C/C=C\CCCCCO [20-Trihydroxy-leukotriene-B4] | 0.6041 | -0.727
3 | CCC=CCC=CCC=CCC=CCC=CCCCC(=O)N[C@@H](CCSC)C(=O)O [N-Eicosapentaenoyl Methionine] | 0.02285 | -5.4516
4 | O=C(O)CCC1CCCC1 [3-Cyclopentylpropionic acid] | 0.08576 | -3.5436
5 | NNc1ccc(C(=O)O)cn1 [6-Hydrazinonicotinic acid] | 1.3224 | 0.4032
6 | Nc1ncnc2c1ncn2[C@@H]1O[C@H](CO)[C@@H](O)[C@H]1O [Adenosine] | 2E+00 and 2.0454 | 1.0 and 1.0324
7 | CCC(=O)OC(CC(=O)[O-])C[N+](C)(C)C (stereo not shown) [Propionylcarnitine] | 0.3206 | -1.6411
8 | O=c1[nH]cnc2c1ncn2[C@@H]1O[C@H](CO)[C@@H](O)[C@@H]1O [Arabinosylhypoxanthine] | 2.4238 | 1.2773
9 | Tetrahydroaldosterone | 871.11 | 9.7667
10 | C[N+](C)(C)C[C@@H](CC(=O)[O-])OC(=O)CCCCCC(=O)O [Pimelylcarnitine] | 3.8414 | 1.9416
11 | C=CCSC[C@H](NC(C)=O)C(=O)O [N-Acetyl-S-allylcysteine] | 3E-02 and 0.02838 | -5.1 and -5.1388
12 | C/C=C/C/C=C/CCC(=O)[C@H]1O[C@H]1C(N)=O [Cerulenin] | 1.3724 | 0.4567
13 | O=C1C=CCCC1 [cyclohexenone] | 0.4903 | -1.0283
14 | N[C@@H](Cc1cnc[nH]1)C(=O)N[C@@H](Cc1ccc(O)cc1)C(=O)O [Histidyltyrosine] (H-His-Tyr-OH) | 0.0967 | -3.3703
15 | CCCC(=O)N[C@H]1CCOC1=O [N-[(3s)-2-Oxotetrahydrofuran-3-Yl]butanamide] | 2E-01 and 0.173 | -2.5 and -2.5309
16 | CC(=O)NCCCC(=O)CC(=O)O [6-Acetamido-3-oxohexanoic acid] | 0.6215 | -0.6862

tested on: CNT1; test: Untargeted metabolomics of Slc28a1-/- vs Slc28a1+/+ mouse plasma (ad libitum); assay type: in vivo; details: not given

Row | Compound | Fold Change | log2(FC)
17 | N[C@@H](Cc1c[nH]c2ccccc12)C(=O)O [L-Tryptophan] | 1.2 and 1.2301 | 0.3 and 0.2988
18 | Nc1ncnc2c1ncn2[C@@H]1O[C@H](COP(=O)(O)O)[C@@H](O)[C@H]1O [Adenosine monophosphate] | 0.7 and 0.7016 | -0.5 and -0.5113
19 | O=C(O)CCC[C@H](O)\C=C/C=C/C=C/[C@H](O)C/C=C\CCCCCO [20-Trihydroxy-leukotriene-B4] | 1.6 and 1.6338 | 0.7 and 0.7082
20 | CCCCCCCCCCCCCCCC(=O)N[C@@H](CO)C(=O)O [N-Hexadecanoyl-serine] | – | -0.3 and -0.2983
21 | C/C=C\C(=O)O [Isocrotonic acid] | 1.5 and 1.4875 | 0.6 and 0.5729
22 | CC(O)C(C)SC(C)C(C)S (stereo not shown) [3-[(2-Mercapto-1-methylpropyl)thio]-2-butanol] | 0.6 and 0.647 | -0.6 and -0.6281
23 | CCc1occ(O)c1O [2-Ethyl-3,4-dihydroxyfuran] | 1.3 and 1.3166 | 0.4 and 0.3969
24 | CCCCCC[C@@H]([C@@H](C)O)n1cnc2c(N)ncnc21 [(2R,3S)-3-(6-Amino-9H-purin-9-yl)nonan-2-ol] | 1.6 and 1.6266 | 0.7 and 0.7018
25 | CC(C)C[C@H](NC(=O)[C@@H](N)CCC(=O)O)C(=O)N[C@@H](CCCN=C(N)N)C(=O)O [Glutamylleucylarginine] (H-Glu-Leu-Arg-OH) | 1.9 and 1.9151 | 0.9 and 0.9375
26 | CCC=CCC=CCC=CCC=CCC=CCCCC(=O)N[C@@H](CCSC)C(=O)O [N-Eicosapentaenoyl Methionine] | 1.9 and 1.9179 | 0.9 and 0.9395
27 | O=C(O)CCC1CCCC1 [3-Cyclopentylpropionic acid] | 3.2 and 3.1561 | 1.7 and 1.6581
28 | CCC=CCCC(=O)O [4-Heptenoic acid] | 3.8 and 3.8427 | 1.9 and 1.9421
29 | O=C(O)C=Cc1c[nH]c2ccccc12 [Indoleacrylic acid] | 1.2 and 1.2118 | 0.3 and 0.2771
30 | NNc1ccc(C(=O)O)cn1 [6-Hydrazinonicotinic acid] | 0.6 and 0.5873 | -0.8 and -0.7679
31 | Nc1ncnc2c1ncn2[C@@H]1O[C@H](CO)[C@@H](O)[C@H]1O [Adenosine] | 0.9 and 0.8524 | -0.2 and -0.2304
32 | CCN(CC)CCn1c(-c2ccccc2)noc1=N [imolamine] | 1.7 and 1.718 | 0.8 and 0.7808
33 | CCCCCCCCOC(=O)c1cc(O)c(O)c(O)c1 [Octyl gallate] | 1.4 and 1.3585 | 0.4 and 0.442
34 | C/C=C/CC/C=C/C=O [(E,E)-2,6-Octadienal] | 3.6 and 3.6317 | 1.9 and 1.8606
35 | CC(=O)/C=C/[C@@]1(O)C(C)(C)C[C@H](O)C[C@@]1(C)O [(3S,5R,6R,7E)-3,5,6-Trihydroxy-7-megastigmen-9-one] | 1.7 and 1.7032 | 0.8 and 0.7682
36 | C1=CNc2ccccc2C=C1 [1-Benzazepine] | 1.2 and 1.1613 | 0.2 and 0.2157
37 | O=C(O)CCCCCCCCC(O)CC(=O)O (stereo not shown) [3-Hydroxydodecanedioic acid] | 1.5 and 1.4754 | 0.6 and 0.5611
38 | C[N+](C)(C)CC(CC(=O)[O-])OC(=O)CCCC=CC=CC=CCCCCC(=O)O (stereo not shown) [Pentadeca-5,7,9-trienedioylcarnitine] | 0.8 and 0.8004 | -0.3 and -0.3211
39 | Oxidized glutathione | 0.7 and 0.6775 | -0.6 and -0.5617
40 | NCCCC[C@H](NC(=O)CNC(=O)[C@@H](N)CC(N)=O)C(=O)NCC(=O)O [asn-gly-lys-gly] (H-NGKG-OH) | 1.6 and 1.616 | 0.7 and 0.6924
41 | C[C@]12C[C@H](O)[C@H]3[C@@H](CCC4=CC(=O)CC[C@@]43C)[C@@H]1CC[C@@H]2C(=O)CO [Corticosterone] | – | 0.6 and 0.6234
42 | CCCCCC(=O)OC(CC(=O)O)C[N+](C)(C)C.[Cl-] (stereo not shown) [Hexanoylcarnitine] | 0.7 and 0.6848 | -0.5 and -0.5463

Row | Compound | Fold Change | log2(FC)
43 | CC(O)CCC(O)c1ccoc1 (stereo not shown) [1,4-Ipomeadiol] | 3.7 and 3.7245 | 1.9 and 1.8971
44 | CCCCCCCCC=CCCCCCCCCCCCC(N)=O [13-Docosenamide] | 1.6 and 1.5663 | 0.6 and 0.6473
45 | CCC(=O)OC(CC(=O)[O-])C[N+](C)(C)C (stereo not shown) [Propionylcarnitine] | 0.8 and 0.7728 | -0.4 and -0.3718
46 | O=C(O)[C@H]1CCCCN1 [D-Pipecolic acid] | 0.5 and 0.5213 | -0.9 and -0.9399
47 | O=c1[nH]cnc2c1ncn2[C@@H]1O[C@H](CO)[C@@H](O)[C@@H]1O [Arabinosylhypoxanthine] | 0.8 and 0.7549 | -0.4 and -0.4056
48 | Cc1cc2ccccc2[nH]1 [2-Methylindole] | 1.2 and 1.1633 | 0.2 and 0.2183
49 | CSCC[C@H](N)C(=O)N[C@@H](CCCCN)C(=O)N[C@@H](CCCCN)C(=O)O [met-lys-lys] (H-Met-Lys-Lys-OH) | 1.7 and 1.6535 | 0.7 and 0.7255
50 | CCCCC/C=C\C/C=C\C/C=C\CCCCC(=O)OC[C@@H](O)COP(=O)([O-])OCC[N+](C)(C)C [LysoPC(18:3(6Z,9Z,12Z)/0:0)] | 0.8 and 0.8475 | -0.2 and -0.2388
51 | O=C(O)CCCC=C=CCO [8-Hydroxy-5,6-octadienoic acid] | 1.6 and 1.6327 | 0.7 and 0.7073
52 | O=C1C(=O)C2CCCCC2C1=O (stereo not shown) [3a,4,5,6,7,7a-Hexahydroindene-1,2,3-trione] | 2.1 and 2.0548 | 1.0 and 1.039
53 | CC(C)[C@H](NC(=O)[C@@H](NC(=O)[C@@H](N)CCCCN)C(C)C)C(=O)N[C@H](C(=O)O)[C@@H](C)O [Dynorphin B (10-13)] (H-KVVT-OH) | 1.5 and 1.5114 | 0.6 and 0.5958
54 | O=C(O)CCCCCCCCCCC(O)CC(=O)O (stereo not shown) [3-Hydroxytetradecanedioic acid] | 3.7 and 3.6668 | 1.9 and 1.8745
55 | CC1C(=O)CC(CC(=O)O)C1(C)C (stereo not drawn) [alpha-Campholonic acid] | 1.9 and 1.8802 | 0.9 and 0.9109
56 | O=C(O)CCCCCCCCC(O)CCCCCC(=O)O (stereo not shown) [xi-7-Hydroxyhexadecanedioic acid] | 4.0 and 4.0339 | 2.0 and 2.0122
57 | CC(C)(CO)[C@@H](O)C(=O)NCCC(=O)O [Pantothenic acid] | 1.5 and 1.4861 | 0.6 and 0.5715
58 | NCCCCCCCC(=O)O [8-Aminooctanoic acid] | 0.6 and 0.6095 | -0.7 and -0.7143
59 | O=C(O)CCCCCCCCC(O)CCCCC(=O)O (stereo not shown) [6-Hydroxypentadecanedioic acid] | 3.8 and 3.7968 | 1.9 and 1.9248
60 | C[C@@H](O)CCC[C@@H](O)CCO [(3R,7R)-1,3,7-Octanetriol] | 1.2 and 1.1718 | 0.2 and 0.2287
61 | Butanedioic acid, octenyl- | 1.6 and 1.5663 | 0.6 and 0.6473
62 | O=C(O)CNC(=O)c1ccccc1 [Hippuric acid] | 0.6 and 0.5802 | -0.8 and -0.7854
63 | 2,5-Diamino-4,5-diketopyrimidine | 1.2 and 1.2457 | 0.3 and 0.317
64 | CC/C=C\C/C=C\C/C=C\C/C=C\C/C=C\CCCC(=O)N[C@@H](CS)C(=O)O [N-Eicosapentaenoyl Cysteine] | – | 0.6 and 0.6176
65 | O=C(O)CCCCCCCCC(=O)O [Sebacic acid] | – | 0.9 and 0.8894
66 | CC(CCC1C(CO)=CC(=O)CC1(C)C)OC1O[C@H](CO)[C@@H](O)[C@H](O)[C@H]1O (stereo partly shown) [9,13-Dihydroxy-4-megastigmen-3-one 9-glucoside] | 1.6 and 1.6359 | 0.7 and 0.71
67 | Cn1cccc1-c1cccnc1 [Nicotyrine] | 1.2 and 1.1873 | 0.2 and 0.2477
